# Results as given in patent publication US20190248902A1.
# Protein sequences, listed by entry. Tags and fused reporters are not part of them. Lines headed by an entry give the natural chain unless they say otherwise; changes in a name come on top.
# UniProt P07306: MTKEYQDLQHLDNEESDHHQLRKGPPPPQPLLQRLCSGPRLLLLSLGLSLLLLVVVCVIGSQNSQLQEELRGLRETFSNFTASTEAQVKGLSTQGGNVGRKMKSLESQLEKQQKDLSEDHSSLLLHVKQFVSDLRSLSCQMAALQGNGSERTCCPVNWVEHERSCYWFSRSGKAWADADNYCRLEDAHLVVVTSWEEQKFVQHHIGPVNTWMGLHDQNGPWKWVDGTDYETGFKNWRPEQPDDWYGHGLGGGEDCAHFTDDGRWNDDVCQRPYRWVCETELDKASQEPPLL
# Results are given in words; binding and its absence hold for the method and conditions named. Some entries that bind do so weakly or less than the wild type.
# B1: 72G9 (antibody, V domains shown)
# VH: EVQLVESGGGLVKPGGSLRLSCAASGFTFSSYSMNWVRQAPGKGLEWVSSISGSSSYIYYADSVKGRFTISRDNAKNSLYLQMNSLRAEDTAVYFCARGGSRGFDPWGQGTLVTVSS
# VL: DIQMTQSPSSLSASVGDRVTITCRASQSITSYLNWYQQKPGKAPKLLIYTASSLQSGVPSRFSGSGSGTDFTLTISSLQPEDFATYYCQQSHSFPFTFGPGTKVDIK
# Target: ASGR-1 on HEPG2 Cells (human) (UniProt P07306)
# Test: FACS or high content imaging on HepG2 cells; Y = signal at least 2x irrelevant IgG
binder,measurement,value
B1,binding,binds
